Measurements reported in PubChem BioAssay AID652259 (Drosophila RNAi Screening Center, 2013)

- Purpose: 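Genome-wide hunt for genes that control Wingless pathway activity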 (primary screen)
- Cells: Drosophila clone 8 imaginal disc epithelial cells
- Reagents: long dsRNA against Drosophila genes
- Challenge: pathway stimulated by co-transfected Wingless expression plasmid
- Measurement: 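Firefly luciferase from a tcf-site Wingless reporter, measured alongside co-transfected Renilla luciferase that tracks transfection; pathway stimulated by a Wingless plasmid; the firefly-to-Renilla ratio is not deposited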
- Scale: firefly reporter light: higher = more Wg reporter light, before normalisation; Renilla control light: higher = more transfected or surviving cells
- Rule for the call: 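Strong candidates differ from their plate mean by at least two out of four per-plate statistical tests; weak candidates meet just one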
- Meaning of the calls: active = candidate regulator (raises or lowers reporter); inactive = not a candidate
The deposit covers about 22,000 reagents; this is a random part of those that have a named target and a result. In the full data, 233 (1.1%) got an active call. 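Light values are raw, unnormalised plate reads; the ratio scores behind the reporter calls were not deposited.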 A plus sign joins genes that one reagent is predicted to hit. Not stated in the record: the amount of reagent, the time to read-out, the dose of the treatment.

gene knocked down	dsRNA	reporter change call, replicate 1	firefly reporter light, replicate 1	firefly reporter light, replicate 2	Renilla control light, replicate 1	Renilla control light, replicate 2	activity call
Osi21 (GeneID 34566)	DRSC02408		3017	8977	893	2282	inactive
CG7737 (GeneID 36174)	DRSC07033		11946		3536		inactive
CG42354 + CG42353	DRSC20172	Wg reporter activity raised	3472	9689	401	1349	active
CG14062 (GeneID 43389)	DRSC14725		6712		2144		inactive
CCT5 (GeneID 36308)	DRSC07357		9339		2128		inactive
CG15286 (GeneID 34834)	DRSC01907		3510	11168	1077	2962	inactive
cad (GeneID 35341)	DRSC03502		6768		1753		inactive
CG7295 (GeneID 33365)	DRSC00699		1994	6697	801	2357	inactive
CG12493 (GeneID 38575)	DRSC08279		1757	10041	1344	3987	inactive
Scr (GeneID 40833)	DRSC12604		18421		2100		inactive
CG8229 (GeneID 35898)	DRSC07114		10876		3559		inactive
CG33630 (GeneID 3772504)	DRSC14546		14664		3623		inactive
NfI (GeneID 43782)	DRSC17158		26757		22250		inactive
CG11983 (GeneID 41081)	DRSC14458	Wg reporter activity lowered	6576		4425		active
Ccn (GeneID 39972)	DRSC09504		3589		1345		inactive
Ccn (GeneID 39972)	DRSC09506		3373		962		inactive
Ccn (GeneID 39972)	DRSC10062		5805		2253		inactive
Ccn (GeneID 39972)	DRSC10063		4738		2584		inactive
Fis1 (GeneID 49892)	DRSC07772		6976		3146		inactive
CG31717 (GeneID 318911)	DRSC01121		15734		5714		inactive
SP (GeneID 39494)	DRSC09664		7489		2586		inactive
Gal (GeneID 33839)	DRSC03134		1485	6357	680	1936	inactive
CG11403 (GeneID 31072)	DRSC18532		1603	6160	731	2152	inactive
Nrx-1 (GeneID 42646)	DRSC16184		4471	6217	849	1289	inactive
sei (GeneID 37843)	DRSC04713		6283		1894		inactive
Ir94e (GeneID 42765)	DRSC15229		21859		19760		inactive
CG43072 (GeneID 12798436)	DRSC11688		15052		3862		inactive
CG13293 (GeneID 38695)	DRSC09967		1051	8915	1004	2688	inactive
CG10300 (GeneID 42798)	DRSC14225		12728		10610		inactive
